Results: ChEMBL document CHEMBL1157366 (Antimicrob Agents Chemother, 2007)

Test system: Plasmodium falciparum
Assay: Antimalarial activity against Plasmodium falciparum
Assay type: functional, organism-based

## CCCCc1oc2ccccc2c1C(=O)c1cc(I)c(OCCN(CC)CC)c(I)c1 [AMIODARONE]
  IC50: 2.5 µM
